# Results from patent publication US10883962B2, “Electrical double layer in nanopores for detection and identification of molecules and submolecular units” (University of Kentucky Research Foundation, priority 2017, dated 2021).
# Experiment: Nanopore double layer potential and ionic current signals of small molecule analytes
smiles,measurement,setting,value
O=C(O)CC(O)(CC(=O)O)C(=O)O [Citric Acid],"Ionic current signal, relationship to pH","1 M NaCl case, p<0.05",inverse relationship to pH
same,"Ionic current signal (Ips), trend","analyte 10 nM in NaF, Example 2",smaller negative magnitudes
same,"Double layer potential signal, relative magnitude","analyte 10^−8 M in NaF 10^−7 to 1 M, Example 1",larger negative magnitude
same,"Double layer potential signal, dependence on pH","pH 2.8, 3.9, 5.5 or 8.5, linear regression p>0.2",not dependent on pH
